# Measurements reported in PubChem BioAssay AID540275 (National Center for Advancing Translational Sciences (NCATS), 2011).
# The chains behind the UniProt entries cited, without tags or fusion partners.
# UniProt Q8NER1, whole entry, looked up: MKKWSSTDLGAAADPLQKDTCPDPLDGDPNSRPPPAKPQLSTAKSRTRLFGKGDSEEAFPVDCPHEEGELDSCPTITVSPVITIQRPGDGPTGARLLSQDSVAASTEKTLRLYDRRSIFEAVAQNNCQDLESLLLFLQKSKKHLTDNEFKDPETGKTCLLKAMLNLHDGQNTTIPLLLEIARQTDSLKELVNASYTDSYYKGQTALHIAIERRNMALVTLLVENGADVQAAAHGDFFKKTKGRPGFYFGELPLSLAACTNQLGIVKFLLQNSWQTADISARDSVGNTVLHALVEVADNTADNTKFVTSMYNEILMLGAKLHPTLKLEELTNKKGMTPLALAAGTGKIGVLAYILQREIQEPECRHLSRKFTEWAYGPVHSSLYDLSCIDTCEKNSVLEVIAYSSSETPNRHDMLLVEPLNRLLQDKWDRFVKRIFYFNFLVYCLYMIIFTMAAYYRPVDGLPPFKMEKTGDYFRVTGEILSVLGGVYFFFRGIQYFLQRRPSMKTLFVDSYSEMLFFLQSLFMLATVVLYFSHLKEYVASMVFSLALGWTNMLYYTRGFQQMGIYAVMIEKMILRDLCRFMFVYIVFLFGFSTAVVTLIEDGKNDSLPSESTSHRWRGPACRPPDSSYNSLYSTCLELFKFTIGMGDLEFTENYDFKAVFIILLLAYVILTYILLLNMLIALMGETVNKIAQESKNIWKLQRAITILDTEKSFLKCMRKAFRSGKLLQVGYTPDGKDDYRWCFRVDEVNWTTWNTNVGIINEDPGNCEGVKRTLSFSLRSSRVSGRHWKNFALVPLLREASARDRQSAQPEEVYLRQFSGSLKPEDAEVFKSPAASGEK
# The whole screen tested about 320,000 compounds, of which about 620 (0.19%) were called active. This list was built around the results that the source calls inconclusive (neither active nor inactive); the mix of calls is not that of the screen. Rule as the data show it: active = activation above about 80%; inconclusive = between about 30% and that limit; inactive = weaker than that.
# Target: Transient receptor potential cation channel subfamily V member 1 (Homo sapiens) (UniProt Q8NER1)
# Assay: HTS Assay for Compounds that Act as Agonists of the Vanilloid Receptor 1; also: 0% is about no effect
# Conditions: TRPV1-expressing cells, Fluo-8 calcium influx, agonist mode; at 8.33 µM, active compounds read high
# Procedure, shortened: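 Fluo-8 calcium influx in TRPV1-expressing cells, kinetic read (ex 480/em 520 nm). Compound added and read 3 min for agonist activity, followed by capsaicin at EC20 final and 2 min further read for enhancement.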
row,Structure (SMILES),activation
1,O=C(/C=C\c1ccccc1[N+](=O)[O-])Nc1ccccc1,inconclusive: 61.8%
2,CCC(C)NC(=O)c1cnn2c(C)c3c(nc12)CCCC3 (stereo not given),inactive: 22.6%
3,COc1cc2oc(=O)cc(C)c2c(OC)c1OC,inactive: -0.706%
4,CCC(=O)N(CCC(c1ccco1)C(C)C)Cc1ccccc1 (stereo not given),inconclusive: 51.4%
5,CCc1nnc(NC(=O)CSc2ccc(-c3ccc(-n4cccn4)cc3)nn2)s1,inactive: 4.54%
6,NS(=O)(=O)c1ccc(NC(=O)c2c(Cl)cccc2Cl)cc1,inactive: -3.11%
7,Cc1ccc(-c2cc(NC(=O)c3ccccc3)on2)cc1,inconclusive: 43.3%
8,COc1ccc(CSc2ccc(-c3nc4ccccn4c3NCc3ccccc3)cc2OC)cc1,inconclusive: 58.9%
9,COc1ccc(OC)c(NC(=O)c2cccc(NC(=O)c3ccccc3)c2)c1,inconclusive: 37.4%
10,CCCn1c(SCC(=O)c2ccc(CC)cc2)n[nH]c1=O,inconclusive: 49.4%
11,COC(=O)c1ccc(COn2nnc3ccccc32)cc1,inconclusive: 43.7%
12,Cn1c(=O)n(C/C=C/c2ccccc2)c(=O)c2c1nc1n2CCCN1Cc1ccccc1,inconclusive: 73%
13,CC(C)(C)c1cc(CCC(=O)N2CCC2)cc(C(C)(C)C)c1O,inconclusive: 65.7%
14,Cc1ccc(S(=O)(=O)NC(=O)NCCCN2CCOCC2)cc1,inactive: 0.514%
15,COCCCNC(=O)c1oc2ccc(S(=O)(=O)N(C)C3CCCCC3)cc2c1C,inconclusive: 35.6%
16,COc1cc2oc3ccccc3c2cc1N(CC(=O)N(C)C)S(=O)(=O)c1ccccc1,inconclusive: 40.5%
17,Cc1ccc(NC(=O)COC(=O)Cc2c[nH]c3ccccc23)cc1F,inconclusive: 42.5%
18,CC(C)c1ccc(NC(=O)NCc2ccc(F)cc2)cc1,inconclusive: 55.6%
19,COc1ccc(-c2nsc(C(=O)N(c3ccc(F)cc3)C(C(=O)NC3CCCC3)c3ccc(OC)cc3)c2N)cc1 (stereo not given),inactive: 0.855%
20,Cn1c(SCc2cccc(Br)c2)nnc1-c1ccccn1,inconclusive: 35.6%
21,Clc1ccccc1SCc1nc2ccccc2[nH]1,inconclusive: 52.6%
22,Cc1ccc(C(=O)N2NC(c3ccc(F)cc3)C3C(=O)N(c4ccc(C)cc4)C(=O)C32)cc1 (stereo not given),inconclusive: 47%
23,O=C(/C=C/c1ccc2c(c1)OCO2)N1CCCCC1,inconclusive: 52%

row,Structure (SMILES),activation
1,CCOC(=O)CSc1nc(Cc2ccccc2)nc2ccccc12,inconclusive: 30.5%
2,Cc1c(O)ccc(NC(=O)/C=C/c2ccccc2)c1C,inconclusive: 49.8%
3,CC(=O)N(C(C)=O)N1C(=O)c2cccc3c(N4CCOCC4)ccc(c23)C1=O,inactive: 7.46%
4,Cc1ccc(OCC(O)CNC(C)c2ccccc2)cc1C (stereo not given),inactive: -0.461%
5,CCN(CC(=O)Nc1c(F)cccc1F)C(=O)Cn1[nH]c(=O)c2ccccc2c1=O,inactive: -2.23%
6,CC1Cc2ccccc2N1S(=O)(=O)c1cccc(C(=O)c2nccn2C)c1 (stereo not given),inconclusive: 30.2%
7,CCc1nc(-c2cc3ccc(C)cc3[nH]c2=O)no1,inactive: 4%
8,CC1=NN(/C(=N\c2nnc(C)s2)Nc2ccc(C(C)(C)C)cc2)[C@H](c2ccc(C)cc2)S1,inconclusive: 45.5%
9,COc1ccc(CN2CCN(Cc3cc(=O)oc4cc(C)ccc34)CC2)c(OC)c1OC,inactive: 3.55%
10,CN(C)c1ccc(C(CNS(=O)(=O)c2ccc(F)cc2)c2c[nH]c3ccccc23)cc1 (stereo not given),inactive: 1.68%
11,O=C(NC1CCCCCCC1)c1cc(COc2ccc3ncccc3c2)on1,inconclusive: 39.6%
12,O=C(COc1ccccc1Cl)Nc1ccc2[nH]c(=O)[nH]c2c1,inactive: 20%
13,O=C(N/N=C/C(Br)=C/c1ccccc1)c1ccccc1F,inconclusive: 36.2%
14,Clc1cccc(-c2ccc(/C=N/n3cnnc3)o2)c1Cl,inactive: 7.1%
15,COC(=O)c1nn(Cc2ccccc2)c(=O)c2ccccc12,inconclusive: 38.6%
16,O=C(Nc1cc(=O)c2ccccc2o1)N1CCCCC1,inconclusive: 30.3%
17,O=C(CSc1ccc([N+](=O)[O-])cc1)NCC1CCCCC1,inconclusive: 48.2%
18,N#C/C(=C\c1ccc(OC(F)F)cc1)C(=O)N1CCCCC1,inconclusive: 50%
19,COc1ccc(CNC(=O)COC(=O)c2c(C)nn(-c3ccccc3)c2C)cc1OC,inconclusive: 60.6%
20,Nc1nccnc1C(=O)OCC(=O)NCCc1ccc(Cl)cc1,inconclusive: 38.7%
21,Oc1c(C=Nc2cccc3cccnc23)sc2ccccc12,inconclusive: 34.2%
22,COc1ccc(CCNC(=O)c2cnc3ccccc3n2)cc1,inconclusive: 32.4%
23,COc1ccc(C(=O)NC23CC4CC(CC(C4)C2)C3)cc1OC,inactive: 5%

# 6 records picked at random from those above, as already listed:
row,Structure (SMILES),activation
6,CC1Cc2ccccc2N1S(=O)(=O)c1cccc(C(=O)c2nccn2C)c1 (stereo not given),inconclusive: 30.2%
12,Cn1c(=O)n(C/C=C/c2ccccc2)c(=O)c2c1nc1n2CCCN1Cc1ccccc1,inconclusive: 73%
3,CC(=O)N(C(C)=O)N1C(=O)c2cccc3c(N4CCOCC4)ccc(c23)C1=O,inactive: 7.46%
11,COC(=O)c1ccc(COn2nnc3ccccc32)cc1,inconclusive: 43.7%
19,COc1ccc(CNC(=O)COC(=O)c2c(C)nn(-c3ccccc3)c2C)cc1OC,inconclusive: 60.6%
5,CCc1nnc(NC(=O)CSc2ccc(-c3ccc(-n4cccn4)cc3)nn2)s1,inactive: 4.54%

# More records

row,Structure (SMILES),activation
1,NS(=O)(=O)c1ccc(S(=O)(=O)N(CCc2ccccc2)Cc2ccccn2)cc1,inconclusive: 50.5%
2,O=C(CN1CCC(NC(=O)Cc2ccccc2)CC1)Nc1ccccc1Br,inconclusive: 44.5%
3,COc1ccc(CNC(=O)C(=O)NCCC2CCCCN2S(=O)(=O)c2cccs2)cc1 (stereo not given),inconclusive: 36.8%
4,CCOC(=O)C1=CN(c2cccc(F)c2)C=C(C(=O)OCC)C1c1cc(OC)c(O)c([N+](=O)[O-])c1,inconclusive: 72.6%
5,CCOC(=O)CNC(=O)Nc1nnc(-c2ccc(OCC)cc2)o1,inactive: 2.75%
6,CC(C)C1(CCNC(=O)c2cccs2)CCOC(C)(C)C1 (stereo not given),inconclusive: 43.6%
7,N#Cc1ccc(-c2c(-c3ccccc3)ncc3cc(F)ccc23)cc1,inconclusive: 30.7%
8,CCOC(=O)c1sc(=NC(=O)c2ccc(S(=O)(=O)N(C)c3ccccc3)cc2)n(C)c1C,inactive: -0.204%
9,Cc1cc(Br)cc(C)c1NC(=S)NC(=O)CC(C)C,inconclusive: 48.4%
10,CN(C)c1ccc(C(CNS(=O)(=O)c2ccc3ccccc3c2)N2CCOCC2)cc1 (stereo not given),inactive: 8.04%
11,COc1ccc(C(=O)C/C(=C\C(=O)c2ccc(C)cc2)c2ccccc2)cc1,inconclusive: 36.5%
12,CCn1c(SCC(=O)Nc2ccc(NC(C)=O)cc2)nc2c1c(=O)n(C)c(=O)n2C,inactive: 0.682%
13,COc1ccc2[nH]c3c(c2c1)CCN1C(=O)N([C@@H](C)C(=O)NCc2ccc(C)cc2)C(=O)[C@]31C,inactive: -2.75%
14,O=S(=O)(c1ccc(NC(=S)NCc2ccncc2)cc1)N1CCCCC1,inconclusive: 55.6%
15,O=C(COc1ccc(Br)cc1)Nc1ccc2c(c1)C(=O)NC2=O,inconclusive: 31.5%
16,O=C1CC(c2cc(Br)ccc2F)c2cc3c(cc2N1)CCC3 (stereo not given),inconclusive: 33%
17,O=C(Nc1cccnc1)c1ccc(-c2cc(Cl)ccc2Cl)o1,inconclusive: 49.9%
18,CO/N=C(/CNC(=O)c1ccc(F)cc1)c1ccc(Cl)cc1,inconclusive: 66.7%
19,O=C(NCCC1=CCCCC1)c1cc(S(=O)(=O)N2CCCCC2)ccc1Cl,inconclusive: 60.2%
20,O=C(Nc1cc2ccccc2oc1=O)c1ccccc1,inactive: 17.4%
21,CCOC(=O)CNC(=O)c1cc(-c2ccccn2)nc2c(C)c(Cl)ccc12,inactive: 20.7%
22,CC(=O)c1cc(NC(=O)c2ccc(Cl)cc2)c(=O)oc1/C=C/N(C)C,inconclusive: 30.7%
23,CCCCCn1c(SCCc2ccccc2)nc2c1c(=O)[nH]c(=O)n2C,inconclusive: 30.9%

row,Structure (SMILES),activation
1,Cc1cccc(NC(=S)NN2CCN(C)CC2)c1C,inactive: 4.14%
2,CCCn1c(=O)[nH]c(=O)c2c1nc(-c1ccc(OC(F)(F)C(F)C(F)(F)F)cc1)n2CCOC (stereo not given),inactive: 2.71%
3,Fc1ccc(-c2csc(N3CCSCC3)n2)cc1,inconclusive: 32%
4,CC(C)(C)c1cc(C(=O)Nc2ccc(F)cc2)n(Cc2ccc(F)cc2)n1,active: 87.9%
5,O=C(NC(Cc1ccccc1)C(=O)O)/C(=C\c1ccc(Cl)cc1)NC(=O)c1ccccc1 (stereo not given),inactive: -0.282%
6,CCOC(=O)c1cc2c(ccn2C)n1Cc1ccccc1C,inactive: 16.6%
7,O=C1OC(c2ccc(Cl)cc2)/C(=C(/O)c2ccccc2)C1=O (stereo not given),inconclusive: 35%
8,Cn1ncc(Br)c1C(=O)Nc1cccc(C(F)(F)F)c1,inconclusive: 37%
9,S=c1[nH]nc(C2CCCCC2)n1/N=C/c1cccc(Cl)c1Cl,inactive: -2.5%
10,NC(=O)C1=NOC(CNc2ncc(C(F)(F)F)cc2Cl)C1 (stereo not given),inconclusive: 72.2%
11,COc1ccccc1NC(=O)Cn1cnc2c(nnn2-c2ccc(C)cc2)c1=O,inconclusive: 49.2%
12,COc1ccc(/C=N/Nc2nccnc2Cl)c(OC)c1,inactive: -2.1%
13,COc1ccc2cc(C(=O)NCc3ccco3)c(=Nc3ccc(C(=O)O)cc3)oc2c1,inactive: -11.6%
14,Cc1ccc(OCc2nnc(SCC(=O)N3c4ccccc4Sc4ccc(Cl)cc43)o2)cc1,inactive: -1.49%
15,COc1ccc(C(=S)Nc2ccc(C)cc2)cc1,inconclusive: 50%
16,CCCNC(=O)COC(=O)c1cc(-c2ccc(OC)cc2)nc2ccccc12,inconclusive: 31.8%
17,CC(C)c1ccc(/C=C(\c2nc3ccccc3[nH]2)S(=O)(=O)c2ccccc2)cc1,inactive: 2.44%
18,CC(C)(C)NC(=O)C(c1cccs1)N(CC1CCCO1)C(=O)c1ccc(-c2ccccc2)[nH]1 (stereo not given),inconclusive: 39.2%
19,Cc1nnc(SCC(=O)Nc2cc(-c3cc(C)c(C)cc3C)nn2-c2ccccc2)s1,inactive: 12.9%
20,O=C(O)C1CCN(C(=O)OCc2ccccc2)CC1,inconclusive: 43.9%
21,CC(C)CNC(=O)CSc1ccc(Cl)cc1,inconclusive: 31.5%
